Measurements from the supplement of paper PMC10849652.
Some of the results follow.

Chains of the proteins cited; added tags and fusions are not shown. Lines headed by an entry give the natural chain unless they say otherwise; changes in a name come on top.
UniProt Q96HD1: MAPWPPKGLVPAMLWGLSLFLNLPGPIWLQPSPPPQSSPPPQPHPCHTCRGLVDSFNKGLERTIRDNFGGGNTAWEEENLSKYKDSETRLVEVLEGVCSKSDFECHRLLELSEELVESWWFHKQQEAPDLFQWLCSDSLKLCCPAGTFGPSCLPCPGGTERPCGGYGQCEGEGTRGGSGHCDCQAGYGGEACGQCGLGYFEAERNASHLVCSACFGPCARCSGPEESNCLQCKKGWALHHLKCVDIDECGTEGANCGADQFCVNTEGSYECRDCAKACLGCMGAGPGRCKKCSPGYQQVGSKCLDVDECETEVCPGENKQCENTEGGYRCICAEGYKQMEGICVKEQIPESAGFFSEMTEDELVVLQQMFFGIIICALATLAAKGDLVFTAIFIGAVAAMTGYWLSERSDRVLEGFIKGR
UniProt P21964: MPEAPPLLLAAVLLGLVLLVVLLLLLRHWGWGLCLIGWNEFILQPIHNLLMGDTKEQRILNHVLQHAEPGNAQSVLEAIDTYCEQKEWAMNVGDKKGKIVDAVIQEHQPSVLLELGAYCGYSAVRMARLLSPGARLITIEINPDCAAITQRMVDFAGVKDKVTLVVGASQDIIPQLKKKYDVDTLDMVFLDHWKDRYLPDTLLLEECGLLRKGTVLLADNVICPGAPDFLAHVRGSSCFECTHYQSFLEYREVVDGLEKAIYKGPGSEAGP
UniProt Q9Y678: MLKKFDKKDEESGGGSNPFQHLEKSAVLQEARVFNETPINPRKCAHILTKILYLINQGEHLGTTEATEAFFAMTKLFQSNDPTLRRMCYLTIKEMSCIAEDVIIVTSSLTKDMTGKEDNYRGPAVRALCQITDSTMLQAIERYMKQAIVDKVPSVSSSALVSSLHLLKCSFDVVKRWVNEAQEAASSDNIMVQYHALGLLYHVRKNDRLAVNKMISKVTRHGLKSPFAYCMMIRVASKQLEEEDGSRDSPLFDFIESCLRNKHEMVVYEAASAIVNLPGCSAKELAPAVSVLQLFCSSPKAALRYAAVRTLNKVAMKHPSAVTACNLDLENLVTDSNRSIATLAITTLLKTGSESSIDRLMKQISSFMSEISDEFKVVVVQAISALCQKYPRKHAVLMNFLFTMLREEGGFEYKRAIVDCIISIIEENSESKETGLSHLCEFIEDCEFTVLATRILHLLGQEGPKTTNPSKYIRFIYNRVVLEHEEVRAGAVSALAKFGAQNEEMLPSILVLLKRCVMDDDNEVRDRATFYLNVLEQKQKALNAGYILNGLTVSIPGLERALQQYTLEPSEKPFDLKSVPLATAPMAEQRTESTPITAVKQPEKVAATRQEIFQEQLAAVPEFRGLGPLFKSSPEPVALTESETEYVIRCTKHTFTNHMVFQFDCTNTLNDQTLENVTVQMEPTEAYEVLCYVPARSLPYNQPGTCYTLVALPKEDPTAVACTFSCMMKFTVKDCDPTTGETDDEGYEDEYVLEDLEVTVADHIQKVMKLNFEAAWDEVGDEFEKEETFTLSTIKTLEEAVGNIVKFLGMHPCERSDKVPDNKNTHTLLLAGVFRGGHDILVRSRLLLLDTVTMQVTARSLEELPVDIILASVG
UniProt P41240: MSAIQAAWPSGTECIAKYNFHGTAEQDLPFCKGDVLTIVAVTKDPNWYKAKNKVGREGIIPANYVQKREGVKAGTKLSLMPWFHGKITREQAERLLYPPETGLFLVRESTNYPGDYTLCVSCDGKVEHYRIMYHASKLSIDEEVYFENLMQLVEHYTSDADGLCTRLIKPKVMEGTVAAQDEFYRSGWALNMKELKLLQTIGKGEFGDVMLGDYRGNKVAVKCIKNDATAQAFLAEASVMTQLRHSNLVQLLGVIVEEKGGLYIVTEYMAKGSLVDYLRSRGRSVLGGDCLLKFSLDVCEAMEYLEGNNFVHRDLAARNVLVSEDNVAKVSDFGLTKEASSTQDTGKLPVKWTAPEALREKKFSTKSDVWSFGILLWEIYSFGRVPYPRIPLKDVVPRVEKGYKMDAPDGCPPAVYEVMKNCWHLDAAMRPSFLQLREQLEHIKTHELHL
UniProt Q9UNS2: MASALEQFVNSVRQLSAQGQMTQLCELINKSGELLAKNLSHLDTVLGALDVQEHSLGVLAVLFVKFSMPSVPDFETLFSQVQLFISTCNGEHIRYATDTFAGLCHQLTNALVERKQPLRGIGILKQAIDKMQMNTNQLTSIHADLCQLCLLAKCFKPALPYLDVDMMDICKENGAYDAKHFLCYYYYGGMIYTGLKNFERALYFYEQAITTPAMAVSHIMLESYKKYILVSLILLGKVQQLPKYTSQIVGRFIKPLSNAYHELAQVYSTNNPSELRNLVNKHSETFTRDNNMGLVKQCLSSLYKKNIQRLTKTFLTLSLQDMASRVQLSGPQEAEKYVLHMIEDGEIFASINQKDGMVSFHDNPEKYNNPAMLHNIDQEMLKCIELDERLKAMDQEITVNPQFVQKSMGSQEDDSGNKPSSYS
UniProt Q9Y2Z9: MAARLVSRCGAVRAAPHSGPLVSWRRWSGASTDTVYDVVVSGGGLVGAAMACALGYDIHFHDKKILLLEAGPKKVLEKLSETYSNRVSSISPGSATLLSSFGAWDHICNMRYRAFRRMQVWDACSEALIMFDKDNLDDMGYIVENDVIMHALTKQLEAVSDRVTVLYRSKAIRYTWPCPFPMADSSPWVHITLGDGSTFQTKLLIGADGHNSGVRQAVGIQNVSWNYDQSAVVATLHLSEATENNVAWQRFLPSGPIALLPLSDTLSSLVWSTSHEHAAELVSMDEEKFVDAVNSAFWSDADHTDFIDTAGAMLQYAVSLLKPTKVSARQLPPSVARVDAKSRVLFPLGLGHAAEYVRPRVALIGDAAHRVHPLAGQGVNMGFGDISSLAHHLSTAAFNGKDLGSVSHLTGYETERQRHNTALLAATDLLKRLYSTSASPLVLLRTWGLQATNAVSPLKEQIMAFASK
UniProt P24311, whole entry, looked up: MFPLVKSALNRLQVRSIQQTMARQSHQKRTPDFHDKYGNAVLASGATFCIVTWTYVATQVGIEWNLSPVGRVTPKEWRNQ
UniProt O75208: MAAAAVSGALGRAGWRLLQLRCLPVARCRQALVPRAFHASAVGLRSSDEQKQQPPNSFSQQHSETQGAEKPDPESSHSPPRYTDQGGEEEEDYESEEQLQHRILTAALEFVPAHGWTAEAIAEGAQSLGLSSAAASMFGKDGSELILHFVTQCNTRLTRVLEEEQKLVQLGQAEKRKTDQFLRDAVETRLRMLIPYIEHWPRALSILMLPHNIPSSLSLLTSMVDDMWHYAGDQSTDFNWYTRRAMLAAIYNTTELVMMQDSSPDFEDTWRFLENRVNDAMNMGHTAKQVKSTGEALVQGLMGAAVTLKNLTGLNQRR
UniProt Q7KZN9: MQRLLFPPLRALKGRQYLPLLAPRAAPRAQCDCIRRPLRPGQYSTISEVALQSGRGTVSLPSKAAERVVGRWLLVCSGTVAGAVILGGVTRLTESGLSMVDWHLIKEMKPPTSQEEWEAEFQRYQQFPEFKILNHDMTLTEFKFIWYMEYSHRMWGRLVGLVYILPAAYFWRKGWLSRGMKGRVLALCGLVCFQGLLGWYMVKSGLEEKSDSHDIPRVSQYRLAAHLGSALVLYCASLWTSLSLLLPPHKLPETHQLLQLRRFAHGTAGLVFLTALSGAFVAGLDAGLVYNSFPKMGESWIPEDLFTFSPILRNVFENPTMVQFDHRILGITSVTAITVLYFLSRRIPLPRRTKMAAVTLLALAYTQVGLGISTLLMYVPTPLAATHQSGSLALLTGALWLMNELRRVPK
UniProt O75131: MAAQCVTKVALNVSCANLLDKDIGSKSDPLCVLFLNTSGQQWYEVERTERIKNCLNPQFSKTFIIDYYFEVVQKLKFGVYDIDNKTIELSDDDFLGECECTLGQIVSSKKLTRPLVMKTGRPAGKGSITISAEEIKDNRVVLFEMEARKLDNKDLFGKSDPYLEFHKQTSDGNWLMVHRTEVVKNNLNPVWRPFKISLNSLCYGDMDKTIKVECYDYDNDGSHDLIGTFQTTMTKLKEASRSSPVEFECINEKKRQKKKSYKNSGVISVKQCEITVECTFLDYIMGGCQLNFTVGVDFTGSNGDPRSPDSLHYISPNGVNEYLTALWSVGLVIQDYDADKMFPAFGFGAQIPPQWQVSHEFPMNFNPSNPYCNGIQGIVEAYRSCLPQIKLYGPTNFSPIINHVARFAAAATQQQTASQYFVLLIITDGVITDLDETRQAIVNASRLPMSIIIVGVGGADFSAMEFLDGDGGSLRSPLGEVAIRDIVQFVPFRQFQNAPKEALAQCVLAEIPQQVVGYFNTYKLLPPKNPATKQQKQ
UniProt O75534: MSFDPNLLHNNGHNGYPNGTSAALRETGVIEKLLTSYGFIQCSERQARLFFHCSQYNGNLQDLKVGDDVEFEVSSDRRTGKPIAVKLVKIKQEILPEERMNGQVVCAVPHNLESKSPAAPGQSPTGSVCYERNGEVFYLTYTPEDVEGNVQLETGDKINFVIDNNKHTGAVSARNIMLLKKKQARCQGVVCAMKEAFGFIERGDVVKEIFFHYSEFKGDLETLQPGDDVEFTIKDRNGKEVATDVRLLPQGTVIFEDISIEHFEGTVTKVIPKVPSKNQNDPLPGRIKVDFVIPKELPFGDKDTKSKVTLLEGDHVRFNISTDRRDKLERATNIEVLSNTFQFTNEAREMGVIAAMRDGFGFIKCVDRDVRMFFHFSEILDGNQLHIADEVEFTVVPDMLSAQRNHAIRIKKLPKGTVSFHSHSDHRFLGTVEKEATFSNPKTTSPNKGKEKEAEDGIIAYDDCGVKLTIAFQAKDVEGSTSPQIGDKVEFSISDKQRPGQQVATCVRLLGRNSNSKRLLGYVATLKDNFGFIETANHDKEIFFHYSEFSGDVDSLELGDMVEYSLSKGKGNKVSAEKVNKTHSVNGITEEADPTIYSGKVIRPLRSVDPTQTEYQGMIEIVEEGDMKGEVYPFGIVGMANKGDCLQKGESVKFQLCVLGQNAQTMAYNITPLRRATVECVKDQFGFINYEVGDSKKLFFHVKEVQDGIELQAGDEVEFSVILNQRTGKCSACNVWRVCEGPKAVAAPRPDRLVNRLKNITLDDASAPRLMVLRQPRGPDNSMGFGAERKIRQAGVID
UniProt O75718: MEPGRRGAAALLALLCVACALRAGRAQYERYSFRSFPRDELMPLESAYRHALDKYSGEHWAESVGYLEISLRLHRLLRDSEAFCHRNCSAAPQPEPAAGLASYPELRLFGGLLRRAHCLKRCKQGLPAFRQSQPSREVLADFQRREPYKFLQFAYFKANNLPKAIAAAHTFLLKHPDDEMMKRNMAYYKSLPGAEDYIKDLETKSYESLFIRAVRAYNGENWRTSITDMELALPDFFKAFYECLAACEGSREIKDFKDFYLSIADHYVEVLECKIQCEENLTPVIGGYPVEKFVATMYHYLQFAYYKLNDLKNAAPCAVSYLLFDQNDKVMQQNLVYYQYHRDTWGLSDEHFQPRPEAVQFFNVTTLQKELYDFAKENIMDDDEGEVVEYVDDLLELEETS
UniProt Q49B96: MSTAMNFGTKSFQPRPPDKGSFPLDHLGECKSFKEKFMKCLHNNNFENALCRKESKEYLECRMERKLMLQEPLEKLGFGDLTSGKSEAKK
UniProt P67870, whole entry, looked up: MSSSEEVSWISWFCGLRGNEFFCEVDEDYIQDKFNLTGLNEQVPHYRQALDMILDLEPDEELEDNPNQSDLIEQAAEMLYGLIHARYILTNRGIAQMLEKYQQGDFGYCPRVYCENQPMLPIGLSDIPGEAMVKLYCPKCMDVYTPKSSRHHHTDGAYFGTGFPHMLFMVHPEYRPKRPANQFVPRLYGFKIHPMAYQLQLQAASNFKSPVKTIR
UniProt Q9H9Q2: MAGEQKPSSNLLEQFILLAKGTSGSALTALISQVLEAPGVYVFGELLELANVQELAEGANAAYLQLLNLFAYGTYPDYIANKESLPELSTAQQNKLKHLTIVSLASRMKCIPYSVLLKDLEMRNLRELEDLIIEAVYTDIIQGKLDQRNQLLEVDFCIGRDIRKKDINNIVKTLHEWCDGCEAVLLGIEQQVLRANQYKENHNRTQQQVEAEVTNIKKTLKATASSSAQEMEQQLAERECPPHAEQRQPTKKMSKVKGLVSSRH
UniProt P46109: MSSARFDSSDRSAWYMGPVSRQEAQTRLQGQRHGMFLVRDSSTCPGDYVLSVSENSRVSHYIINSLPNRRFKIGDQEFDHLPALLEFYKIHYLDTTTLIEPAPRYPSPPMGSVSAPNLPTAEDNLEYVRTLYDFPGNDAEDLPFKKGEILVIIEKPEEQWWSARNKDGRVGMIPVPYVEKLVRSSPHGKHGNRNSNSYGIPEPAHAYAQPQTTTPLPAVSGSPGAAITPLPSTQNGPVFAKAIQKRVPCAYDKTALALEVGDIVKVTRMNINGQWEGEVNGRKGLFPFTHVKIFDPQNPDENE
UniProt Q99627: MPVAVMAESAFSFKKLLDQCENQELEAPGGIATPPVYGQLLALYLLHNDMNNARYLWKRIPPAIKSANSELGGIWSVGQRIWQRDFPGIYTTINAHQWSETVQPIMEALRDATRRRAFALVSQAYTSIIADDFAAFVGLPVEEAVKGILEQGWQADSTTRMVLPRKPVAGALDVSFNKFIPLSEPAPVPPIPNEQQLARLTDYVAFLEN

Legend:
Test in all cases: log2 fold change, soluble protein after heating vs DMSO (PISA); higher = thermal stabilisation; K562 cells, 10 uM, 30 min; active = over 0.2 and 3.5 SD of the protein, either way, in both replicates (recomputed)
[1] = compound: NC(=O)Nc1cc(-c2cccc(F)c2)sc1C(=O)N[C@H]1CCCNC1
In short: (§1)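 Soluble protein was quantified by TMTpro 16plex LC-MS/MS after channel sums were equalised. It was obtained as the supernatant after 21,000xg for 90 min from pooled aliquots of K562 cells (2×10^6 cells/mL, 10 μM compound, 30 min) heated for 3 min across 48°C-58°C and extracted in PBS with 0.5% NP-40 at 4°C. Thermal stability values are relative to control samples and come from duplicates. They are given as log2 fold changes.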

[2] = compound: NC(=O)c1cnc(N[C@@H]2CCCC[C@@H]2N)nc1Nc1cccc(-n2nccn2)c1
In short: as §1

[3] = compound: NC1(c2ccc(-c3nc4ccn5c(=O)[nH]nc5c4cc3-c3ccccc3)cc2)CCC1
In short: as §1

[4] = compound: NCC(=O)Nc1ccc(-n2nc(C(F)(F)F)cc2-c2ccc3c(ccc4ccccc43)c2)cc1
In short: as §1

entinostat = compound: Nc1ccccc1NC(=O)c1ccc(CNC(=O)OCc2cccnc2)cc1 [entinostat]
In short: as §1

vorinostat = compound: O=C(CCCCCCC(=O)Nc1ccccc1)NO [vorinostat]
In short: as §1

citarinostat = compound: O=C(CCCCCCNC(=O)c1cnc(N(c2ccccc2)c2ccccc2Cl)nc1)NO [citarinostat]
In short: as §1

silmitasertib = compound: O=C(O)c1ccc2c(c1)nc(Nc1cccc(Cl)c1)c1ccncc12 [silmitasertib]
In short: as §1

[5] = compound: O=C1NC(=O)C(c2cnc3ccccn23)=C1c1cn2c3c(cc(F)cc13)CN(C(=O)N1CCCCC1)CC2
In short: as §1

[6] = compound: c1cc(OCCN2CCCCC2)cc(-c2n[nH]c3ccc(-c4nnc[nH]4)cc23)c1
In short: as §1

Target | log2 fold change [1] | log2 fold change [2] | log2 fold change [3] | log2 fold change [4] | log2 fold change (entinostat) | log2 fold change (vorinostat) | log2 fold change (citarinostat) | log2 fold change (silmitasertib) | log2 fold change [5] | log2 fold change [6]
CRELD1 isoform 2 (UniProt Q96HD1) | inactive: -0.231 | inactive: -0.123 | inactive: -0.228 | inactive: -0.524 | inactive: -0.014 | inactive: -0.024 | inactive: -0.023 | inactive: 0.103 | inactive: 0.069 | inactive: -0.139
COMT (UniProt P21964) | inactive: -0.052 | active: 0.356 | inactive: -0.015 | inactive: -0.022 | inactive: -0.022 | inactive: -0.054 | inactive: 0.052 | inactive: -0.057 | inactive: -0.086 | inactive: 0.015
COPG1 (UniProt Q9Y678) | inactive: -0.002 | inactive: 0.007 | inactive: -0.053 | inactive: -0.013 | inactive: 0.016 | inactive: 0.022 | inactive: 0.059 | inactive: 0.016 | inactive: -0.044 | inactive: -0.025
COX6C (UniProt P09669) | inactive: -0.013 | inactive: -0.043 | inactive: 0.264 | inactive: -0.035 | inactive: -0.008 | inactive: -0.016 | inactive: -0.132 | inactive: -0.063 | inactive: -0.015 | inactive: 0.108
COX11 (UniProt Q9Y6N1) | inactive: -0.035 | inactive: 0.032 | inactive: -0.007 | inactive: -0.034 | inactive: 0.028 | inactive: 0.05 | inactive: 0.105 | inactive: 0.043 | inactive: -0.032 | inactive: -0.011
CSK (UniProt P41240) | active: 0.318 | inactive: -0.084 | inactive: -0.156 | inactive: -0.083 | inactive: 0.006 | inactive: 0.023 | inactive: 0.03 | inactive: 0.046 | inactive: -0.048 | inactive: -0.014
COPS3 isoform 2 (UniProt Q9UNS2) | inactive: -0.129 | inactive: -0.364 | inactive: -0.005 | inactive: -0.272 | inactive: -0.007 | inactive: -0.169 | inactive: -0.14 | inactive: 0 | inactive: -0.597 | inactive: 0.011
COQ6 (UniProt Q9Y2Z9) | inactive: -0.018 | inactive: 0.002 | inactive: -0.05 | inactive: 0.011 | inactive: 0.05 | inactive: 0.034 | inactive: -0.019 | inactive: 0.058 | inactive: -0.027 | inactive: -0.053
COX7B (UniProt P24311) | inactive: 0.094 | inactive: -0.001 | inactive: -0.028 | inactive: 0.02 | inactive: -0.054 | inactive: 0.012 | inactive: -0.013 | inactive: 0.039 | inactive: 0.036 | inactive: -0.026
COQ9 (UniProt O75208) | inactive: 0.02 | inactive: -0.002 | inactive: -0.151 | inactive: -0.032 | inactive: 0.045 | inactive: 0.028 | inactive: -0.013 | inactive: 0.021 | inactive: -0.103 | inactive: 0.008
COX15 (UniProt Q7KZN9) | inactive: 0.003 | inactive: -0.009 | inactive: -0.043 | inactive: -0.013 | inactive: 0.004 | inactive: -0.017 | inactive: 0.048 | inactive: 0.022 | inactive: 0.028 | inactive: -0.064
CPNE3 (UniProt O75131) | inactive: -0.052 | inactive: 0.081 | inactive: -0.004 | inactive: 0.18 | inactive: 0.023 | inactive: -0.016 | inactive: 0.029 | inactive: 0.056 | inactive: -0.07 | inactive: 0.031
CPS1 isoform 3 (UniProt P31327) | inactive: 0.061 | inactive: -0.32 | inactive: 0.021 | inactive: 0.009 | inactive: 0.093 | inactive: 0.241 | inactive: -0.011 | inactive: 0.024 | inactive: 0.059 | inactive: 0.314
CPQ (UniProt Q9Y646) | inactive: 0.083 | inactive: -0.01 | inactive: -0.011 | inactive: 0.072 | inactive: 0.012 | inactive: -0.043 | inactive: 0.038 | inactive: -0.004 | inactive: 0.03 | inactive: 0.009
CSDE1 isoform 4 (UniProt O75534) | inactive: -0.002 | inactive: -0.063 | inactive: 0.051 | inactive: -0.021 | inactive: 0.101 | inactive: 0.104 | inactive: 0.048 | inactive: 0.14 | inactive: 0.236 | inactive: -0.146
CS (UniProt O75390) | inactive: -0.024 | inactive: -0.087 | inactive: -0.187 | inactive: 0.007 | inactive: 0.001 | inactive: 0.064 | inactive: 0.012 | inactive: -0.039 | inactive: 0.003 | inactive: -0.068
CORO1C isoform 3 (UniProt Q9ULV4) | inactive: 0.05 | inactive: 0.016 | inactive: 0.049 | inactive: 0.004 | inactive: 0.011 | inactive: 0.035 | inactive: 0.013 | inactive: 0.067 | inactive: 0.006 | inactive: 0.024
CRTAP (UniProt O75718) | inactive: 0.016 | inactive: 0.056 | inactive: -0.008 | inactive: 0.079 | inactive: 0.011 | inactive: 0.003 | inactive: -0.027 | inactive: 0.053 | inactive: 0.049 | inactive: -0.121
COQ5 (UniProt Q5HYK3) | inactive: -0.006 | inactive: -0.086 | inactive: -0.087 | inactive: 0.015 | inactive: -0.035 | inactive: 0.008 | inactive: 0.043 | inactive: 0.004 | inactive: -0.038 | inactive: 0.01
CRIPT (UniProt Q9P021) | inactive: -0.094 | inactive: 0.04 | inactive: 0.119 | inactive: -0.016 | inactive: 0.058 | inactive: -0.003 | inactive: -0.073 | inactive: 0.007 | inactive: -0.123 | inactive: 0.009
CRYM-AS1 (UniProt A6NIL9) | inactive: 0.038 | inactive: -0.014 | inactive: 0.27 | inactive: 0.042 | inactive: -0.101 | inactive: 0.014 | inactive: 0.021 | inactive: 0.031 | inactive: -0.076 | inactive: -0.135
COX19 (UniProt Q49B96) | inactive: 0.049 | inactive: -0.013 | inactive: -0.014 | inactive: 0.005 | inactive: -0.038 | inactive: -0.021 | inactive: -0.007 | inactive: 0.009 | inactive: -0.011 | inactive: -0.017
CSNK2B (UniProt P67870) | inactive: -0.017 | inactive: 0 | inactive: 0.006 | inactive: 0.084 | inactive: -0.008 | inactive: 0.021 | inactive: 0.036 | active: 0.377 | inactive: -0.011 | inactive: -0.02
COPS7B (UniProt Q9H9Q2) | inactive: 0 | inactive: 0.133 | inactive: 0.006 | inactive: 0.155 | inactive: -0.027 | inactive: 0.061 | inactive: 0.01 | inactive: 0.015 | inactive: 0.042 | inactive: -0.023
COPZ1 isoform 4 (UniProt P61923) | inactive: 0.028 | inactive: 0.075 | inactive: -0.037 | inactive: -0.012 | inactive: 0.045 | inactive: -0.093 | inactive: 0.016 | inactive: -0.014 | inactive: -0.034 | inactive: -0.049
CRKL (UniProt P46109) | active: -1.11 | inactive: -0.019 | inactive: -0.015 | inactive: -0.005 | inactive: 0.004 | inactive: 0.023 | inactive: 0.005 | inactive: 0.066 | inactive: -0.031 | inactive: -0.064
CREBBP (UniProt Q92793) | inactive: 0.011 | inactive: 0.009 | inactive: -0.072 | inactive: -0.016 | inactive: 0.003 | inactive: 0.007 | inactive: 0.078 | inactive: -0.046 | inactive: -0.026 | inactive: -0.015
COPS8 (UniProt Q99627) | inactive: 0.02 | inactive: 0.038 | inactive: -0.042 | inactive: 0.043 | inactive: 0.034 | inactive: 0.041 | inactive: 0.056 | inactive: 0.044 | inactive: -0.077 | inactive: 0.018
CPD (UniProt O75976) | inactive: 0.002 | inactive: 0.032 | inactive: -0.101 | inactive: -0.008 | inactive: 0.016 | inactive: 0.019 | inactive: 0.018 | inactive: 0.032 | inactive: -0.034 | inactive: -0.111

Limited to log2 fold change [3], log2 fold change (vorinostat) and log2 fold change [5], for some of the entries so far:
Target,log2 fold change [3],log2 fold change (vorinostat),log2 fold change [5]
COPS3 isoform 2 (UniProt Q9UNS2),inactive: -0.005,inactive: -0.169,inactive: -0.597
COPS7B (UniProt Q9H9Q2),inactive: 0.006,inactive: 0.061,inactive: 0.042
